From patent US20130130273A1 (KOREA BASIC SCIENCE INSTITUTE, published 2013)
Results are given in words; binding and its absence hold for the method and conditions named. Some results given as binding are weak or reduced against the parent protein; the word gives no strength. Where a sequence is shown, tags or fusion partners need not be part of it. Values belong to the binder of their own block, whether it stands above or below them.

Assays:
TMD-HcR-p38 [1] = molecular target: TMD-HcR-p38 (UniProt Q13155); experiment: co-translocation of a five-protein complex with p38 first construct after PMA, HEK293 cells; binding to p38 may be indirect
TMD-HcR-p38 [2] = molecular target: TMD-HcR-p38 (UniProt Q13155); experiment: co-translocation of a five-protein complex with TMD-HcR-p38 after PMA, confocal microscopy, HEK-293 cells; binding to p38 may be indirect

binding (TMD-HcR-p38 [1]): binds
binding (TMD-HcR-p38 [2]): binds
B1: GFP-DRS (protein, UniProt P14868 1-501, looked up, not shown: large carriers)
chain: MPSASASRKSQEKPREIMDAAEDYAKERYGISSMIQSQEKPDRVLVRVRDLTIQKADEVVWVRARVHTSRAKGKQCFLVLRQQQFNVQALVAVGDHASKQMVKFAANINKESIVDVEGVVRKVNQKIGSCTQQDVELHVQKIYVISLAEPRLPLQLDDAVRPEAEGEEEGRATVNQDTRLDNRVIDLRTSTSQAVFRLQSGICHLFRETLINKGFVEIQTPKIISAASEGGANVFTVSYFKNNAYLAQSPQLYKQMCICADFEKVFSIGPVFRAEDSNTHRHLTEFVGLDIEMAFNYHYHEVMEEIADTMVQIFKGLQERFQTEIQTVNKQFPCEPFKFLEPTLRLEYCEALAMLREAGVEMGDEDDLSTPNEKLLGHLVKEKYDTDFYILDKYPLAVRPFYTMPDPRNPKQSNSYDMFMRGEEILSGAQRIHDPQLLTERALHHGIDLEKIKAYIDSFRFGAPPHAGGGIGLERVTMLFLGLHNVRQTSMFPRDPKRLTP

binding (TMD-HcR-p38 [1]): binds
binding (TMD-HcR-p38 [2]): binds
B2: CFP-RRS (protein, UniProt P54136 1-660, looked up, not shown: large carriers)
chain: MDVLVSECSARLLQQEEEIKSLTAEIDRLKNCGCLGASPNLEQLQEENLKLKYRLNILRKSLQAERNKPTKNMINIISRLQEVFGHAIKAAYPDLENPPLLVTPSQQAKFGDYQCNSAMGISQMLKTKEQKVNPREIAENITKHLPDNECIEKVEIAGPGFINVHLRKDFVSEQLTSLLVNGVQLPALGENKKVIVDFSSPNIAKEMHVGHLRSTIIGESISRLFEFAGYDVLRLNHVGDWGTQFGMLIAHLQDKFPDYLTVSPPIGDLQVFYKESKKRFDTEEEFKKRAYQCVVLLQGKNPDITKAWKLICDVSRQELNKIYDALDVSLIERGESFYQDRMNDIVKEFEDRGFVQVDDGRKIVFVPGCSIPLTIVKSDGGYTYDTSDLAAIKQRLFEEKADMIIYVVDNGQSVHFQTIFAAAQMIGWYDPKVTRVFHAGFGVVLGEDKKKFKTRSGETVRLMDLLGEGLKRSMDKLKEKERDKVLTAEELNAAQTSVAYGCIKYADLSHNRLNDYIFSFDKMLDDRGNTAAYLLYAFTRIRSIARLANIDEEMLQKAARETKILLDHEKEWKLGRCILRFPEILQKILDDLFLHTLCDYIYELATAFTEFYDSCYCVEKDRQTGKILKVNMWRMLLCEAVAAVMAKGFDILGIKPVQRM
